Source: patent publication US20160009817A1 (Bayer, published 2016)
No constants are given. Whether binding was seen depends on the method and setting. Some binding calls cover weakened binding; strength is not graded here.

Sequences of proteins named here, by UniProt entry; tags and fusion partners are left off. Residues count along the entry.
UniProt P10646, residues 29-282: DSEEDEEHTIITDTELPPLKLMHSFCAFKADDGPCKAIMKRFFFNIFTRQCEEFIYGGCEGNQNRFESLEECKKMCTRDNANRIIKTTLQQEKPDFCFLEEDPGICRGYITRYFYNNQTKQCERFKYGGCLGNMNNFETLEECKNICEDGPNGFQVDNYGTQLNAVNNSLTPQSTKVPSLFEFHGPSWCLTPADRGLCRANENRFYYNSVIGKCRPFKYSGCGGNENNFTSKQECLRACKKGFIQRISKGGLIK

B1: Ter119scFv-gA200 (bispecific antibody, human IgG2, lambda)
heavy: QVKLQESGGGLVQPGGSLKLSCVASGFTFRDHWMNWVRQAPGKTMEWIGDIRPDGSDTNYAPSVRNRFTISRDNARSILYLQMSNMRSDYTATYYCVRDSPTRAGLMDAWGQGASVTVLTGGGGSGGGGSGGGGSDIQMIQSPSVLSASVGDRVTLNCKASQNINKYLNWYQQKLGEAPKVLIYNTNNLQTGIPSRFSGSGSGTDFTLTISSLQPEDFATYFCFQHYTWPTFGGGTKLELKEGRTATSGGGLVQPGGSLRLSCAASGFTFSSYGMDWVRQAPGKGLEWVSSIRGSRGSTYYADSVKGRFTISRDNSKNTLYLQMNSLRAEDTAVYYCARLYRYWFDYWGQGTLVTVSSASTKGPSVFPLAPCSRSTSESTAALGCLVKDYFPEPVTVSWNSGALTSGVHTFPAVLQSSGLYSLSSVVTVPSSNFGTQTYTCNVDHKPSNTKVDKTVERKCCVECPPCPAPPVAGPSVFLFPPKPKDTLMISRTPEVTCVVVDVSHEDPEVQFNWYVDGVEVHNAKTKPREEQFNSTFRVVSVLTVVHQDWLNGKEYKCKVSNKGLPAPIEKTISKTKGQPREPQVYTLPPSREEMTKNQVSLTCLVKGFYPSDIAVEWESNGQPENNYKTTPPMLDSDGSFFLYSKLTVDKSRWQQGNVFSCSVMHEALHNHYTQKSLSLSPG
light: SYELTQPPSVSVSPGQTARITCSGDNLPKYYAHWYQQKPGQAPVVVIFYDVNRPSGIPERFSGSNSGNTATLTISGTQAMDEADYYCQAWWSSTPVFGGGTKLTVLGQPKAAPSVTLFPPSSEELQANKATLVCLISDFYPGAVTVAWKADSSPVKAGVETTTPSKQSNNKYAASSYLSLTPEQWKSHRSYSCQVTHEGSTVEKTVAPTECS
notes: scFv against RBC fused on the N-terminus of the heavy chain of anti-TFPI IgG gA200; made in CHO cells; also called Ter119sc-gA200; T119sc-gA200
B2: 3E10scFv-gA200 (bispecific antibody, human IgG2, lambda)
heavy: QVQLVESGGTLVQPGGSLRLSCAASGFSFTDAWMSWVRQAPGKELEWVSSISGSGGSTYYAGSVKGRFTISRDNSKNTLYLQMNSLRAEDTAVYYCARVLSLTDYYWYGMDVWGQGTLVTVGGGGSGGGGSGGGGSNFMLTQPHSVSASPGKTVTISCTRSSGSVASYYVQWYQQRPGSSPTTVIYEDNHRPSGVPDRFSGSIDTSSNSASLTISGLKTEDEADYYCQSYDSNNLVVFGGGTKLTVLGEGRTATSGGGLVQPGGSLRLSCAASGFTFSSYGMDWVRQAPGKGLEWVSSIRGSRGSTYYADSVKGRFTISRDNSKNTLYLQMNSLRAEDTAVYYCARLYRYWFDYWGQGTLVTVSSASTKGPSVFPLAPCSRSTSESTAALGCLVKDYFPEPVTVSWNSGALTSGVHTFPAVLQSSGLYSLSSVVTVPSSNFGTQTYTCNVDHKPSNTKVDKTVERKCCVECPPCPAPPVAGPSVFLFPPKPKDTLMISRTPEVTCVVVDVSHEDPEVQFNWYVDGVEVHNAKTKPREEQFNSTFRVVSVLTVVHQDWLNGKEYKCKVSNKGLPAPIEKTISKTKGQPREPQVYTLPPSREEMTKNQVSLTCLVKGFYPSDIAVEWESNGQPENNYKTTPPMLDSDGSFFLYSKLTVDKSRWQQGNVFSCSVMHEALHNHYTQKSLSLSPG
light: B1 light
notes: scFv against TF fused on the N-terminus of the heavy chain of anti-TFPI IgG gA200; made in CHO cells; also called 3E10sc-gA200

Experiments:
[1] = molecular target: human tissue factor pathway inhibitor (TFPI) (human) (UniProt P10646); assay: SPR (Biacore), human TFPI immobilised on a CM4 or CM5 chip, 10 µg/mL antibody without HSA, percentage binding
[2] = molecular target: human tissue factor pathway inhibitor (TFPI) (human) (UniProt P10646); assay: SPR (Biacore), human TFPI immobilised, 10 ug/mL antibody

Binder	binding [1]	binding [2]
B1	binds	binds
B2	binds	
